Measurements reported in PubChem BioAssay AID652259 (Drosophila RNAi Screening Center, 2013)
Aim: 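Genome-wide hunt for genes that control Wingless pathway activity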 (primary screen). Cells: Drosophila clone 8 imaginal disc epithelial cells. Reagent: long dsRNA against Drosophila genes. Conditions: pathway stimulated by co-transfected Wingless expression plasmid. Detection: 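Dual luciferase reads per well after Wingless plasmid stimulation: reporter firefly light and Renilla control light; activity is firefly divided by Renilla, a ratio not deposited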. Scale: firefly reporter light: higher = more Wg reporter light, before normalisation; Renilla control light: higher = more transfected or surviving cells. Call rule: 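Strong candidates differ from their plate mean by at least two out of four per-plate statistical tests; weak candidates meet just one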. Meaning of the calls: active = candidate regulator (raises or lowers reporter); inactive = not a candidate.
The screen tested about 22,000 reagents; shown is an unselected part of those that have a named target and a result. Of all reagents, 233 (1.1%) are marked active. 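Light values are raw, unnormalised plate reads; the ratio scores behind the reporter calls were not deposited.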 A number with no mark means an inactive call. The numbers tell different reagents against one gene apart. A plus sign joins genes that one reagent is predicted to hit. No sequences are given here. Not given: the amount of reagent, the time to read-out, the dose of the treatment.

The first 7 records as a preview:
| target gene | reagent | firefly reporter light, replicate 1 | firefly reporter light, replicate 2 | Renilla control light, replicate 1 | Renilla control light, replicate 2 |
| --- | --- | --- | --- | --- | --- |
| CG2124 | 1 | 15489 | – | 7227 | – |
| Cpr11B (Cuticular protein 11B) | 1 | 2992 | 7664 | 827 | 1831 |
| Jon99Ci (Jonah 99Ci) | 1 | 8253 | – | 3193 | – |
| CG7741 | 1 | 10592 | – | 4294 | – |
| Top2 (Topoisomerase 2) | 1 | 2953 | 5740 | 1026 | 2299 |
| lectin-24Db | 1 | 15908 | – | 7250 | – |
| mRF1 (mitochondrial translation release factor 1) | 1 | 9302 | – | 1863 | – |

The list itself, repeating the preview:
| target gene | reagent | firefly reporter light, replicate 1 | firefly reporter light, replicate 2 | Renilla control light, replicate 1 | Renilla control light, replicate 2 |
| --- | --- | --- | --- | --- | --- |
| CG2124 | 1 | 15489 | – | 7227 | – |
| Cpr11B (Cuticular protein 11B) | 1 | 2992 | 7664 | 827 | 1831 |
| Jon99Ci (Jonah 99Ci) | 1 | 8253 | – | 3193 | – |
| CG7741 | 1 | 10592 | – | 4294 | – |
| Top2 (Topoisomerase 2) | 1 | 2953 | 5740 | 1026 | 2299 |
| lectin-24Db | 1 | 15908 | – | 7250 | – |
| mRF1 (mitochondrial translation release factor 1) | 1 | 9302 | – | 1863 | – |
| CanA1 (Calcineurin A1) | 1 | 10937 | – | 3356 | – |
| CG34223 | 1 | 18561 | – | 13312 | – |
| Acsx1R (Acyl-CoA synthetase X1 R) | 1 | 19197 | – | 3840 | – |
| CG31522 | 1 | 2896 | – | 1398 | – |
| CG34292 | 1 | 2947 | – | 1488 | – |
| CG5541 | 1 | 3089 | 9002 | 1226 | 4337 |
| Elp1 (Elongator complex protein 1) | 1 | 6515 | – | 2481 | – |
| Alg3 (ALG3, alpha-1,3- mannosyltransferase) | 1 | 8832 | – | 2477 | – |
| Tsp97E (Tetraspanin 97E) | 1 | 2200 | 8404 | 1137 | 2311 |
| CG31717 | 1 | 15734 | – | 5714 | – |
| Cyp4e2 (Cytochrome P450 4e2) | 1 | 5737 | – | 2096 | – |
| MP1 (Melanization Protease 1) | 1 | 11080 | 7.89e5 | 4710 | 3.97e5 |
| RN-tre (Related to the N terminus of tre oncogene) | 1 | 12034 | – | 3226 | – |
| PH4alphaNE1 (prolyl-4-hydroxylase-alpha NE1) | 1 | 1956 | 3587 | 856 | 889 |
| lncRNA:CR43409 (long non-coding RNA:CR43409) | 1 | 15372 | – | 8325 | – |
| CG14120 | 1 | 4261 | – | 1805 | – |
| CG17105 | 1 | 2404 | 7328 | 1164 | 3561 |
| CG6565 | 1 | 17061 | – | 5480 | – |
| CG12171 | 1 | 8342 | – | 1997 | – |
| CG2187 | 1 | 17532 | – | 12586 | – |
| BtbVII (BTB-protein-VII) | 1 | 5024 | – | 1096 | – |
| BtbVII (BTB-protein-VII) | 2 | 4761 | – | 1917 | – |
| Zmynd10 (Zinc finger MYND-type containing 10) | 1 | 5456 | – | 2288 | – |
| PolE1 (DNA polymerase epsilon subunit 1) | 1 | 2160 | 4027 | 1082 | 2240 |
| ova (ovaries absent) | 1 | 14832 | – | 3481 | – |
| CG8642 | 1 | 3482 | 9623 | 1127 | 2723 |
| Uhg3 (U snoRNA host gene 3) | 1 | 6.04e5 | 6.35e5 | 2.59e5 | 2.17e5 |
| CG43394 | 1 | 17378 | – | 6134 | – |
| CG43394 | 2 | 7.82e5 | 6.35e5 | 2.58e5 | 52 |
| Dsp1 (Dorsal switch protein 1) | 1 | 13748 | – | 1543 | – |
| CG8303 | 1 | 4352 | – | 2053 | – |
| yellow-h | 1 | 16973 | – | 10532 | – |
| Spn43Ab (Serpin 43Ab) | 1 | 1837 | 4602 | 418 | 2277 |
| CG5355 | 1 | 9586 | – | 1191 | – |
| BCL7-like | 1 | 3177 | 7761 | 1264 | 3128 |
| CG34011 | 1 | 11064 | – | 6308 | – |
| CG30339 | 1 | 19396 | – | 9877 | – |
| m-cup (mann-cup) | 1 | 10836 | – | 2939 | – |
| RhoGAP18B (Rho GTPase activating protein at 18B) | 1 | 14816 | – | 9218 | – |
| RhoGAP18B (Rho GTPase activating protein at 18B) | 2 | 14960 | – | 8966 | – |
| RhoGAP18B (Rho GTPase activating protein at 18B) | 3 | 21059 | – | 7225 | – |
| RhoGAP18B (Rho GTPase activating protein at 18B) | 4 | 23331 | – | 9051 | – |
| Fpps (Farnesyl pyrophosphate synthase) | 1 | 6887 | – | 2589 | – |
| CG42650 | 1 | 3255 | – | 1528 | – |
| CG11060 | 1 | 10784 | – | 3332 | – |
| ric8a | 1 | 2393 | 4304 | 661 | 1371 |
| CR42745 (retired record) | 1 | 3948 | – | 2490 | – |
| CG32720 | 1 | 2905 | – | 1264 | – |
| D2hgdh (D-2-hydroxyglutaric acid dehydrogenase) | 1 | 4044 | 8681 | 1513 | 3232 |
| comt (comatose) | 1 | 14571 | – | 7376 | – |
| MED16 (Mediator complex subunit 16) | 1 | 2482 | 4864 | 748 | 3085 |
| Gyg (Glycogenin) | 1 | 15814 | – | 7830 | – |
| Gyg (Glycogenin) | 2 | 3700 | 5750 | 907 | 2509 |
| CG13742 + CNT1 | 1 | 3592 | 5699 | 872 | 2205 |
| ClC-a (Chloride channel-a) | 1 | 13325 | – | 3523 | – |
| ClC-a (Chloride channel-a) | 2 | 14189 | – | 4841 | – |
| ClC-a (Chloride channel-a) | 3 | 7077 | – | 2268 | – |
| Sec24AB (Secretory 24AB) | 1 | 11184 | – | 2557 | – |
| CG7656 | 1 | 13158 | – | 3377 | – |
| Targ1 (Terminal ADP-ribose protein glycohydrolase 1) | 1 | 21585 | – | 5533 | – |
| CG6125 | 1 | 10777 | – | 3142 | – |
| CG33771 | 1 | 2738 | – | 1177 | – |
| TBC1D23 (TBC1 domain family member 23) | 1 | 2917 | 7815 | 1021 | 2564 |
| CG13850 | 1 | 2194 | 4797 | 1123 | 1532 |
| Nup43 (Nucleoporin 43kD) | 1 | 20113 | – | 4003 | – |
| Unc-76 (Uncoordinated 76) | 1 | 14528 | – | 10008 | – |
| Unc-76 (Uncoordinated 76) | 2 | 30595 | – | 15576 | – |
